One sequence from PMC9478404 can be followed below.

Construct, isoform or probe ends are uncertain for at least one entry. For some of these results: Weaker means in comparison with the reference protein, sequence or condition of that experiment. For some of these results: Where a protein sequence is shown, tags need not be part of it.

Experiment in all cases: fluorescence polarization
In general terms: Polarisation of emitted light reports the rotation of a fluorescent probe.

Data set [1] has as its target B-Myb 34-370 (DBD-TAD) (Homo sapiens) (UniProt P10244). As to conditions: FP: 20 nM TAMRA-MBS probe, 150 mM NaCl, 25 mM Tris pH 8, 1 mM DTT, 0.1% Tween20; DBD+NRD preincubated 30 min on ice; assay temperature not stated; recombinant protein; residues 34-370; protein details: GST removed by TEV; label: 3' TAMRA on printed strand (/36-TAMSp/).
The target in data set [2] is T1, B-Myb 34-600 (DBD-TAD-NRD) (Homo sapiens) (UniProt P10244).
T1 sequence (looked up): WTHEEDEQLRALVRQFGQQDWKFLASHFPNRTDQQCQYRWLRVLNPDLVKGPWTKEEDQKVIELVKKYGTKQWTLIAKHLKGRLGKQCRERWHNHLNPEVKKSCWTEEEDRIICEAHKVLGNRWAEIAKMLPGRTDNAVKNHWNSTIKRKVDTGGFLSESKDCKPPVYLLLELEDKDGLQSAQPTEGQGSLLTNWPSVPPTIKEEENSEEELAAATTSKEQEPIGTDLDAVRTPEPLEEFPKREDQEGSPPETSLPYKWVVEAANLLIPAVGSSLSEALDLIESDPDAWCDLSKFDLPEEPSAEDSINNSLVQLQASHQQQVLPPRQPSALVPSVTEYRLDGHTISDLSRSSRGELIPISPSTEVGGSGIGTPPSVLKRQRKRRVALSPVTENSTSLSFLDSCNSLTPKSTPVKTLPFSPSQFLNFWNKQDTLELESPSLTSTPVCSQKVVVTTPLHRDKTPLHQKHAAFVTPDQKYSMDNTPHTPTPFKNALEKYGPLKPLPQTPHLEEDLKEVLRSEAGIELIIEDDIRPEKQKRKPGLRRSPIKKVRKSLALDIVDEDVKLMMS
The settings on record: unphosphorylated, weak affinity similar to unphosphorylated full-length; FP: 20 nM TAMRA-MBS probe, 150 mM NaCl, 25 mM Tris pH 8, 1 mM DTT, 0.1% Tween20; DBD+NRD preincubated 30 min on ice; assay temperature not stated; recombinant protein; residues 34-600; protein details: cleavable N-terminal Strep tag; label: 3' TAMRA on printed strand (/36-TAMSp/).

Data set [3] deals with B-Myb DBD (Homo sapiens) (UniProt P10244). As to conditions: FP: 20 nM TAMRA-MBS probe, 150 mM NaCl, 25 mM Tris pH 8, 1 mM DTT, DBD+NRD preincubated 30 min on ice, assay temperature not stated, recombinant protein, residues 34-183, protein details: GST removed by TEV, label: 3' TAMRA on printed strand (/36-TAMSp/).
In data set [4] the target is B-Myb full-length, phosphorylated by Cdk2-CycA only (Homo sapiens) (UniProt P10244). The settings on record: phosphorylated by Cdk2-CycA only; FP: 20 nM TAMRA-MBS probe, 150 mM NaCl, 25 mM Tris pH 8, 1 mM DTT, 0.1% Tween20; DBD+NRD preincubated 30 min on ice; assay temperature not stated; recombinant protein; residues 1-700; protein details: cleavable N-terminal Strep tag; label: 3' TAMRA on printed strand (/36-TAMSp/).

For data set [5], the target named is B-Myb full-length, phosphorylated by Cdk2-CycA then Plk1 (Homo sapiens) (UniProt P10244). The settings on record: phosphorylated by Cdk2-CycA and Plk1; FP: 20 nM TAMRA-MBS probe, 150 mM NaCl, 25 mM Tris pH 8, 1 mM DTT, 0.1% Tween20; DBD+NRD preincubated 30 min on ice; assay temperature not stated; recombinant protein; residues 1-700; protein details: cleavable N-terminal Strep tag; label: 3' TAMRA on printed strand (/36-TAMSp/).

Data set [6] addresses B-Myb full-length, treated with Plk1 only (Homo sapiens) (UniProt P10244). As to conditions: Plk1 only, no effect compared with unphosphorylated B-Myb; FP: 20 nM TAMRA-MBS probe, 150 mM NaCl, 25 mM Tris pH 8, 1 mM DTT, 0.1% Tween20; DBD+NRD preincubated 30 min on ice; assay temperature not stated; recombinant protein; residues 1-700; protein details: cleavable N-terminal Strep tag; label: 3' TAMRA on printed strand (/36-TAMSp/).

Data set [7] concerns the target T2, B-Myb full-length, unphosphorylated (Homo sapiens) (UniProt P10244).
T2 sequence (looked up): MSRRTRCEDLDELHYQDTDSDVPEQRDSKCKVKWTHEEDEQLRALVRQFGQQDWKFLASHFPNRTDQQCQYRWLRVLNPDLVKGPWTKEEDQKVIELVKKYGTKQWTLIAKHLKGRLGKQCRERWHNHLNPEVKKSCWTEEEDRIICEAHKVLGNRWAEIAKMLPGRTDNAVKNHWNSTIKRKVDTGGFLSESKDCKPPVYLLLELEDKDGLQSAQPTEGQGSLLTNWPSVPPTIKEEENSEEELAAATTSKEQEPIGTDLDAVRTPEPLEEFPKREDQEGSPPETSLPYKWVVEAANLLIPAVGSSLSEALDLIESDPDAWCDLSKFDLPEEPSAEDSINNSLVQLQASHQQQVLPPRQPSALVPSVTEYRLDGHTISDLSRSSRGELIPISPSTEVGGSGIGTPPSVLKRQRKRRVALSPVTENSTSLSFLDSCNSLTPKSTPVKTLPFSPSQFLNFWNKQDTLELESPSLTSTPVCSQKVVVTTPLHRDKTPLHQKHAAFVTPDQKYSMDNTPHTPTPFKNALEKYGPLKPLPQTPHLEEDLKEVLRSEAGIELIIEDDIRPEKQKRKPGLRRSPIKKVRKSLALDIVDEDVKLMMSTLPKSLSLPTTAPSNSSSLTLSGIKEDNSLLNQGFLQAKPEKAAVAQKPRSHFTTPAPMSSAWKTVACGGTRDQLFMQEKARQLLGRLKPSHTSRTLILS
As to conditions: unphosphorylated, weak, potentially nonspecific binding; FP: 20 nM TAMRA-MBS probe, 150 mM NaCl, 25 mM Tris pH 8, 1 mM DTT, 0.1% Tween20; DBD+NRD preincubated 30 min on ice; assay temperature not stated; recombinant protein; residues 1-700; protein details: cleavable N-terminal Strep tag; label: 3' TAMRA on printed strand (/36-TAMSp/).

Turning to “GCATTATAACGGTCTTTTAGCGCCTGG (double strand) [MBS probe]”, the Kd (as a rule, the concentration at which binding is half-saturated) was 1000 nM in data set [1]; 1000 nM in data set [3] (30 uM Cdk2-CycA-phosphorylated NRD (440-600) in trans, 0.1% Tween20); 3000 nM in data set [3] (30 uM NRD 510-600 T515A,T518A,T520A in trans, value assigned from unlabelled figure text, 0.1% Tween20); 900 nM in data set [3] (30 uM Plk1-phosphorylated TAD in trans, 0.1% Tween20); 900 nM in data set [3] (30 uM TAD in trans, 0.1% Tween20); 16000 nM in data set [3] (30 uM unphosphorylated NRD (440-600) in trans, 0.1% Tween20). Further, the Kd is 16000 nM in data set [3] (30 uM unphosphorylated WT NRD (510-600) in trans, 0.1% Tween20); 1000 nM in data set [3] (DBD alone (given as 1.1 +/- 0.1 uM with Fig. 4), 0.1% Tween20); 4000 nM in data set [4]; 3000 nM in data set [5]; > 10000 nM in data set [7]. Further, the binding result was “binds more weakly” in data set [2]; “binds” in data set [3] (30 uM Cdk2-CycA-phosphorylated NRD 510-600 S577A in trans, inhibition abrogated, 0.1% …); “binds more weakly” in data set [3] (30 uM Cdk2-CycA-phosphorylated NRD 510-600 T515A,T518A,T520A in trans, inhibition similar to unphosphorylated mutant, 0.1% Tween20); “binds” in data set [3] (30 uM Cdk2-CycA-phosphorylated NRD 510-600 T538A in trans, inhibition abrogated, 0.1% …); “binds more weakly” in data set [6].
